Data reported in PubChem BioAssay AID1347076 (National Center for Advancing Translational Sciences (NCATS), 2019).
About 13,000 (3.2%) of roughly 400,000 compounds were called active. The shares of active, inactive and inconclusive entries below differ from those in the screen. Calls follow the shape of the dose curve; as a rule, active = well fitted cell-killing curve with a large enough effect; inconclusive = small, poorly fitted or top-dose-only effect, or effect the other way; inactive = flat fitted curve, though single readings scatter. Potencies of inconclusive entries are doubtful fits and often do not repeat. Where a structure was tested more than once in an assay, its records may differ in their call.

Assay: qHTS assay for MDR1-selective chemotherapeutics: Primary screen using the drug-selected MDR subline cells KB-V1; also: nearly all actives have a fitted effect of over 60% in size
Settings: KB-V1 MDR cells viability, CellTiter-Glo, 72 h; activity change, negative = cytotoxicity: at 46.1 µM (top of the series)
Summary of the method: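 Potencies derive from concentration-effect curves fitted to normalized luminescence (CellTiter-Glo) of KB-V1 cells treated for 72 h at 37 degrees C in phenol-red-free DMEM containing 10% FBS.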
% is scaled to controls: 0 for no effect and ±100 for the full control effect; potency is read from the fitted curve at half-maximal effect.

| SMILES | activity change, negative = cytotoxicity | Potency |
| --- | --- | --- |
| COc1ccc(C2c3sc(=O)[nH]c3SC3C(=O)N(c4ccccc4)C(=O)C32)cc1 (stereo unspecified) | inactive: -11.5% |  |
| Cc1cccc2c(=O)cc(CSc3ccccc3NC(=O)c3cccc(Br)c3)[nH]c12 | inactive: -3.29% |  |
| CCc1ccc(S(=O)(=O)Nc2cccc(-c3ccc(OC)nn3)c2)s1 |  | inconclusive: 6.51 µM [cytotoxic, full curve] |
| COc1ccccc1CCn1cnc(Cc2ccccc2)c1C(C)C |  | active: 13 µM |
| CN(Cc1ccc(Cl)cc1Cl)C(=O)CNC(=O)c1ccco1 | inactive: 0% |  |
| Fc1ccc(C(c2ccc(F)cc2)N2CCN(C/C=C/c3ccccc3)CC2)cc1 |  | inconclusive: 16.4 µM [cytotoxic, partial curve] |
| O=C(c1ccc(-c2ccccc2)cc1)c1ccccc1C(=O)N1CCOCC1 |  | active: 20.6 µM |
| COc1cc(OC)cc(-c2c(-c3cccs3)c3cc(-c4cnc(N)nc4)ccc3n2C)c1 |  | inconclusive: 32.6 µM [cytotoxic, single point] |
| O=C(O)c1ccc(NS(=O)(=O)c2ccc(N3C(=O)CCC3=O)cc2)cc1 |  | inconclusive: 29.1 µM [rising, single point] |
| CC(C)NC(=O)c1onc(CSc2ccc(C(C)C)cc2)c1C(=O)O |  | inconclusive: 29.1 µM [rising, single point] |
| COc1ccc(/C=N/NC(N)=S)cc1 |  | inconclusive: 13 µM [cytotoxic, partial curve, poor fit] |
| O=C(OCc1cccc(C(F)(F)F)c1)c1ccc[nH]c1=O |  | inconclusive: 29.1 µM [rising, single point] |
| CCOC(=O)c1cc2cc(F)ccc2nc1C |  | inconclusive: 18.4 µM [rising, single point] |
| COc1ccc(OC)c(Nc2nc(N)nc(CCl)n2)c1 |  | inconclusive: 29.1 µM [cytotoxic, single point] |
| Cc1cc(S(=O)(=O)NCC(C)C)ccc1OCC(=O)NCC1CCCO1 (stereo unspecified) |  | active: 20.6 µM |
| Cc1ccc(NC(=O)c2nc(C)n(-c3ccc([N+](=O)[O-])cc3)n2)cc1 |  | active: 11.6 µM |
| COc1ccc(-c2nc(-c3ccc(NC(=O)c4ccncc4)cc3)no2)cc1OC |  | active: 10.3 µM |
| Cc1ccc(NC(=O)CCc2c(C)nc3ncnn3c2C)cc1Cl | inactive: -19.9% |  |
| Cc1csc(NC(=O)c2ccc(Cn3nc(C)c(Br)c3C)o2)n1 |  | active: 2.59 µM |
| COc1cccc(NC(=O)CN(C)C(=O)c2ccc(N3CCCCC3)c([N+](=O)[O-])c2)c1 |  | inconclusive: 25.9 µM [cytotoxic, single point] |
| COc1cc(-c2noc(C)c2C#CC2(O)CCCCC2)cc(OC)c1OC |  | active: 14.6 µM |

Quoted at random: 2 records from the list

| SMILES | activity change, negative = cytotoxicity | Potency |
| --- | --- | --- |
| COc1cc(OC)cc(-c2c(-c3cccs3)c3cc(-c4cnc(N)nc4)ccc3n2C)c1 |  | inconclusive: 32.6 µM [cytotoxic, single point] |
| Fc1ccc(C(c2ccc(F)cc2)N2CCN(C/C=C/c3ccccc3)CC2)cc1 |  | inconclusive: 16.4 µM [cytotoxic, partial curve] |
